Results from publication PMC5619949.
Results are given in words; binding and its absence hold for the method and conditions named. Binding seen in cells or lysates may run through a third protein. Some results given as binding are weak or reduced against the parent protein; the word gives no strength.

Chains of the proteins cited; added tags and fusions are not shown.
UniProt O75400: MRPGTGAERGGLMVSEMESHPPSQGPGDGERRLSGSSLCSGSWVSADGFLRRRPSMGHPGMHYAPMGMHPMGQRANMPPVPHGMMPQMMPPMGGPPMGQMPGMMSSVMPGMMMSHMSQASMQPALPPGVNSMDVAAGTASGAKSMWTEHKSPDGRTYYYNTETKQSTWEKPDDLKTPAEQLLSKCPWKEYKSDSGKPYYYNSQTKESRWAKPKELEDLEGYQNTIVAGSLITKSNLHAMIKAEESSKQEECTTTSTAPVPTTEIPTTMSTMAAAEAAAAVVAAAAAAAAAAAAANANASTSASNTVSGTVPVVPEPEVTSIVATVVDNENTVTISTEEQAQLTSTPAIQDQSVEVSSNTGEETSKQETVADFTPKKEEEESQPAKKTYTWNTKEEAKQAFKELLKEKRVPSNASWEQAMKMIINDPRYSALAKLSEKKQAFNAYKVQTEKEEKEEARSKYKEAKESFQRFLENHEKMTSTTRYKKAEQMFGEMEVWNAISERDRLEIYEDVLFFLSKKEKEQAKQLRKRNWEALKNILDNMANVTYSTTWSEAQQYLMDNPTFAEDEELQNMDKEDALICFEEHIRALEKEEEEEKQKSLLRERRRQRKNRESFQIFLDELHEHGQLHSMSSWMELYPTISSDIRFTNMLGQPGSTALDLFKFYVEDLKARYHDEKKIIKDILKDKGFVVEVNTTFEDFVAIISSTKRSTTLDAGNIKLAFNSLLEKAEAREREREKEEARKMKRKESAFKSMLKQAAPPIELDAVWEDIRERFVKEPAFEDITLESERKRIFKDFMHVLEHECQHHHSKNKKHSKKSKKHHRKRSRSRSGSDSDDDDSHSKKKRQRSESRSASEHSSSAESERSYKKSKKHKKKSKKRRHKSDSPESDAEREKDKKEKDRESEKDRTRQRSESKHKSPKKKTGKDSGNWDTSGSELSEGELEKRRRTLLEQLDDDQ
UniProt Q13435: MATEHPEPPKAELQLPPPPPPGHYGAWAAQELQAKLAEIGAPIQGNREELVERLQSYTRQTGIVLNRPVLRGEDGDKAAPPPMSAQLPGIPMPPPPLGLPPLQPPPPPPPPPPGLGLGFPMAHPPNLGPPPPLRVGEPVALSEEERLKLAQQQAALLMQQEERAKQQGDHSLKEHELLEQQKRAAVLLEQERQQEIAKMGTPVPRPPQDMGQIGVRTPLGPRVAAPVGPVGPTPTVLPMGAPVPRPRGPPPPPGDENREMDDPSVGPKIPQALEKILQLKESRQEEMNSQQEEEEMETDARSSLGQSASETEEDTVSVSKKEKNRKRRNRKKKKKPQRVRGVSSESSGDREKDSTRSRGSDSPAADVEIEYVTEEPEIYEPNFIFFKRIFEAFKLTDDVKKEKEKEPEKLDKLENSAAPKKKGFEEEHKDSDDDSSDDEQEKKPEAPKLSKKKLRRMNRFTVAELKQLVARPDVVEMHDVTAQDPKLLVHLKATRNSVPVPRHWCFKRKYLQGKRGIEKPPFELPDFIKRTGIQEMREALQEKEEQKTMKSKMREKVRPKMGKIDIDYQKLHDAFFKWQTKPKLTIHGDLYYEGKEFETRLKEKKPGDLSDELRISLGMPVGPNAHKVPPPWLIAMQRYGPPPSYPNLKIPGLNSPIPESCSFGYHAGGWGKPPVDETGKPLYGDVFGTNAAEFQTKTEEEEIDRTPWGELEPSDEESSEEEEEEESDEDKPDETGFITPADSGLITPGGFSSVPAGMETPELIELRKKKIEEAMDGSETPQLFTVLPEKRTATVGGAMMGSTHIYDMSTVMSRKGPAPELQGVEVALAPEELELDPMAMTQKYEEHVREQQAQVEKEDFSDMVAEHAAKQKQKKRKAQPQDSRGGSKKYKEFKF

Target: GFP-PRPF40A (UniProt O75400)
Test: co-IP; GFP-Trap magnetic beads added to cleared lysate of HEK293 cells stably expressing GFP-PRPF40A; cells treated with DMSO or 20 µM hinokiflavone for 8 hr; Co-IP buffer (1 mM EDTA, 100 µM Na3VO4, 0.5% Triton X-100, 20 mM beta-Glycerol P), overnight at 4°C; western blot

Q: How did the binding turn out when SF3B2 (from UniProt Q13435 1-895) was run?
A: The binding was “binds”.
